Results as given in paper PMC9262611.

Columns and labels:
Test in all cases: two-hybrid; yeast Y2HGold, pGBKT7 bait and pGADT7 prey, growth on SD-Leu-Trp-His-Ade with X-α-Gal
[1] = target: T1, BD-PAP9 (Arabidopsis thaliana) (UniProt Q9LU64)
T1 sequence: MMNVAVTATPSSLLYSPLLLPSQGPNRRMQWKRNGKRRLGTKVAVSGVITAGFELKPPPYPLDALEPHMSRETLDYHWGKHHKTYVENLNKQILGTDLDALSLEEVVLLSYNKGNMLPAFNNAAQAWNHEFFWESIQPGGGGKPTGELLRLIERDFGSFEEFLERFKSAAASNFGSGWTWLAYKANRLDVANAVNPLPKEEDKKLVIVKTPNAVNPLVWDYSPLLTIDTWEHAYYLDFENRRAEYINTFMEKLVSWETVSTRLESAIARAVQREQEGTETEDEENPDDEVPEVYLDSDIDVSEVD

[2] = target: T2, RpoA yeast two-hybrid fusion (Arabidopsis thaliana) (UniProt P56762)
T2 sequence: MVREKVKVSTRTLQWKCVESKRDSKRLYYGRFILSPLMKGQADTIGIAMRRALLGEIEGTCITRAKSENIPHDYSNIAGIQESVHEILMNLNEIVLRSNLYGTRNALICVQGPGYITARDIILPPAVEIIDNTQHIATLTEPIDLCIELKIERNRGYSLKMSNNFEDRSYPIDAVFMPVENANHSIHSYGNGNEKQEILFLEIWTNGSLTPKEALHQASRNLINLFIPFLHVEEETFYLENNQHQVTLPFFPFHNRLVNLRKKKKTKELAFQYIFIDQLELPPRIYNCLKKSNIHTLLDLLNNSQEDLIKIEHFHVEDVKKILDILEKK

[3] = target: T3, RpoC1 yeast two-hybrid fusion (Arabidopsis thaliana) (UniProt P56763)
T3 sequence: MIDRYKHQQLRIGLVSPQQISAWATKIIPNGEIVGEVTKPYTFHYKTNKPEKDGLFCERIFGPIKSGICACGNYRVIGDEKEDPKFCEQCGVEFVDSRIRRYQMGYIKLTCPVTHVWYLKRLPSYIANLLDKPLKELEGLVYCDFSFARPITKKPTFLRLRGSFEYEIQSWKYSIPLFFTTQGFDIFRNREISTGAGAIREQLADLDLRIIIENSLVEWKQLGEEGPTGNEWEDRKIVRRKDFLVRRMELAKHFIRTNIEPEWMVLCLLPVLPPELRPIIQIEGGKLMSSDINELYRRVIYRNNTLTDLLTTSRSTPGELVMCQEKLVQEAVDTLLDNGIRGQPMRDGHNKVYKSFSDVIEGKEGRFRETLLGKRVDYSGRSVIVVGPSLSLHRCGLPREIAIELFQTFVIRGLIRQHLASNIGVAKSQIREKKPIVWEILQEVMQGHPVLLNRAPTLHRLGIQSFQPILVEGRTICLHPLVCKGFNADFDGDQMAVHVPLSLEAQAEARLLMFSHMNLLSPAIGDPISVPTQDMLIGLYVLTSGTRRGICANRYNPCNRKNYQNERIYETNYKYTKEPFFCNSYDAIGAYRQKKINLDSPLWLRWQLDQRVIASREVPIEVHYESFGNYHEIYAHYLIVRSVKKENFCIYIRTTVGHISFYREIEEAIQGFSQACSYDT

[4] = target: T4, RpoC2 yeast two-hybrid fusion (Arabidopsis thaliana) (UniProt P56764)
T4 sequence: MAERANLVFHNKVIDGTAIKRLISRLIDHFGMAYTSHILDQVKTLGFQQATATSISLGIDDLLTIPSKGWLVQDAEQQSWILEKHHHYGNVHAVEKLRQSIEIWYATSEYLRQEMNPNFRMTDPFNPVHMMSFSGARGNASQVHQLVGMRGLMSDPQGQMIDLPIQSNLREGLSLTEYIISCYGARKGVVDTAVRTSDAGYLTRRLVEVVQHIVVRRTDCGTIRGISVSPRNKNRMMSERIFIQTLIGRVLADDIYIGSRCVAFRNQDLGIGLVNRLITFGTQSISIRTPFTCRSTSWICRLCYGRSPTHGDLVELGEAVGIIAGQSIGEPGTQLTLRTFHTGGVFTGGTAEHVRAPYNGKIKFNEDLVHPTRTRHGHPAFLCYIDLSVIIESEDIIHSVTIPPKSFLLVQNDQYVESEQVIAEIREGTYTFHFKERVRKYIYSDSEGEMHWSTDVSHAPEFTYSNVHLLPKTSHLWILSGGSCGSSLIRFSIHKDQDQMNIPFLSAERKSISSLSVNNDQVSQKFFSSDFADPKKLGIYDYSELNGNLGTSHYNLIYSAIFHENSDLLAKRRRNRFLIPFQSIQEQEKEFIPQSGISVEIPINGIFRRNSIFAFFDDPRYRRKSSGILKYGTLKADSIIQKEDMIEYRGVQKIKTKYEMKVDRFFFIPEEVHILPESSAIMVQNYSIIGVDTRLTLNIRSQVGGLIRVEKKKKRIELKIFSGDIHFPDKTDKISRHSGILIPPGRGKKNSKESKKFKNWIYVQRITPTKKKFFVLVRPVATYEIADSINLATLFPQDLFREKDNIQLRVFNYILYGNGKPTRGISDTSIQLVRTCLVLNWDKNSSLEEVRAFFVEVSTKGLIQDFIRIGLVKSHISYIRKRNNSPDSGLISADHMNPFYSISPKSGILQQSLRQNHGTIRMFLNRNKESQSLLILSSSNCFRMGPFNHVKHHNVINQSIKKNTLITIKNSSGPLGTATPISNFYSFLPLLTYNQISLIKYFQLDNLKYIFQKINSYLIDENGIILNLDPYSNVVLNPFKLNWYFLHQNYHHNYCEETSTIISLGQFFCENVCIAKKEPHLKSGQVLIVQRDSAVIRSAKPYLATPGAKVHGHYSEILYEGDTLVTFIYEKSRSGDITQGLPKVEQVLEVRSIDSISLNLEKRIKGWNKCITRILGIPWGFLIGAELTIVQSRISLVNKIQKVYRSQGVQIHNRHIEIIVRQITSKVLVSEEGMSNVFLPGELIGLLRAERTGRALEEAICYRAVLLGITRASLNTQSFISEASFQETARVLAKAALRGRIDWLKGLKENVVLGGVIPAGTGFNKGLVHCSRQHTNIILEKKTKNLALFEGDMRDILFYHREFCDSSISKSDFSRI

## AD-AtNusG (Arabidopsis thaliana)
[1]
  binding: binds
[2]
  binding: no binding
[3]
  binding: no binding
[4]
  binding: no binding

These are yes or no findings as the source states them, for the method shown. For some of these results: Binding calls can cover weak binding; strength is not graded here. Sequences can lack the tags named with a protein.
